The record followed here is paper PMC6332004, “Transport of Twelve Coumarins from Angelicae Pubescentis Radix across a MDCK-pHaMDR Cell Monolayer—An in Vitro Model for Blood-Brain Barrier Permeability” (Molecules, 2015).

A short description of data set [1]: in vitro. The note with it: dog, MDCK-MDR1, pH 7.4.
Data set [2] deals with MDCK-pHaMDR cell monolayer. The experiment in a line: Bidirectional transport across MDCK-pHaMDR cell monolayer (in vitro BBB model). Conditions: AP to BL; coumarins 50 µM, caffeine 10 µM, atenolol 200 µM; 90 min; mean ± S.D., n = 6.

A word on the Papp A→B: it is the apparent permeability from the apical to the basolateral side of a cell layer. A low value points to poor permeation. `CC(C)NCC(O)COc1ccc(CC(N)=O)cc1` (centres unmarked) [Atenolol, atenolol, reference compound] gave an apical-to-basolateral permeability (Papp A→B) at 90 min in data set [1] of 0.761 ×10⁻⁶ cm/s. In addition, the “Papp AP-BL” value in data set [2] was 0.76 ± 0.16 ×10^−6 cm/s.
